In the supplement of paper PMC12819154, “High-throughput peptide-centric local stability assay extends protein–ligand identification to membrane proteins, tissues and bacteria” (Nature Structural & Molecular Biology, 2025):
The other results are listed elsewhere or left out. Most values lie at the level of the controls, where differences are scatter.

Amino acid sequences for entries named in this document (tags omitted). A change or cut given only in a name is not applied to a line headed by its entry.
UniProt P09152: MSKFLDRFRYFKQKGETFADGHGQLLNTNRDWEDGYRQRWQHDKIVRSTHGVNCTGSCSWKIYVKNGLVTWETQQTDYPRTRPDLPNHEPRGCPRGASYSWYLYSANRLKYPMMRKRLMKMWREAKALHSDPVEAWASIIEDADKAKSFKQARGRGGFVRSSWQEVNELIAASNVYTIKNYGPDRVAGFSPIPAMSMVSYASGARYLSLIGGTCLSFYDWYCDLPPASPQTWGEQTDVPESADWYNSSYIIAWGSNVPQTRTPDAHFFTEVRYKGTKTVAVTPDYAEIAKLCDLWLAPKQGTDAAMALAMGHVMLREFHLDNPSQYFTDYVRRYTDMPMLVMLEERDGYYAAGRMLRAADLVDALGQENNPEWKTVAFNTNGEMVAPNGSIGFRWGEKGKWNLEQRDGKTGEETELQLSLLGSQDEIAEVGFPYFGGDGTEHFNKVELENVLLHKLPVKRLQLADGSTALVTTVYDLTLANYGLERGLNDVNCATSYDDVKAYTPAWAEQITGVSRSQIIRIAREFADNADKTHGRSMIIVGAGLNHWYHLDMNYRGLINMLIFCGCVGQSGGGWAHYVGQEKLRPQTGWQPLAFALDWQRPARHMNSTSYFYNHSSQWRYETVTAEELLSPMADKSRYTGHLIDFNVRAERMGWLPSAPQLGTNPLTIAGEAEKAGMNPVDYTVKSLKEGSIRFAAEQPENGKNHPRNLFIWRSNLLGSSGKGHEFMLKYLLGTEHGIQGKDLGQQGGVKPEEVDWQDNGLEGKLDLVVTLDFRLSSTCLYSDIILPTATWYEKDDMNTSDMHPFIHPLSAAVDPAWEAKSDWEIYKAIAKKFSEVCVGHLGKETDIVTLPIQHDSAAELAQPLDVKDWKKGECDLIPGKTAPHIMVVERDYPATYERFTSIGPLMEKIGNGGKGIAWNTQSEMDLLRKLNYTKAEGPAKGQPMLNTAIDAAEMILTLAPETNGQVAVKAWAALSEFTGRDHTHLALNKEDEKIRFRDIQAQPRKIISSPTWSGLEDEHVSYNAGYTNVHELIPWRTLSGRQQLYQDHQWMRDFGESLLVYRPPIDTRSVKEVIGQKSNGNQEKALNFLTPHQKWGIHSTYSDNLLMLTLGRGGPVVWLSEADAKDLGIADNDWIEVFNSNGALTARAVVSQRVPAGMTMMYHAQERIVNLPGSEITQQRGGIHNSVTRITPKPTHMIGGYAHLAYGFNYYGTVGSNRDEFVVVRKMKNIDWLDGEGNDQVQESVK
UniProt P06846: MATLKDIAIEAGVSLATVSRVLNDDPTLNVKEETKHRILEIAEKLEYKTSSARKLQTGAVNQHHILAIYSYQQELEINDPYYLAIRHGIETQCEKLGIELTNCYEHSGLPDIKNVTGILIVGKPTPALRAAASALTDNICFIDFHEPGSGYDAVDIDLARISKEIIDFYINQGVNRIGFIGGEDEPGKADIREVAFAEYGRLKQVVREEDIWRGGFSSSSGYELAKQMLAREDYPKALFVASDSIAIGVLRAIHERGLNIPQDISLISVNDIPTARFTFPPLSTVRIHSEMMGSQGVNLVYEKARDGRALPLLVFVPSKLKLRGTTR
UniProt P07109: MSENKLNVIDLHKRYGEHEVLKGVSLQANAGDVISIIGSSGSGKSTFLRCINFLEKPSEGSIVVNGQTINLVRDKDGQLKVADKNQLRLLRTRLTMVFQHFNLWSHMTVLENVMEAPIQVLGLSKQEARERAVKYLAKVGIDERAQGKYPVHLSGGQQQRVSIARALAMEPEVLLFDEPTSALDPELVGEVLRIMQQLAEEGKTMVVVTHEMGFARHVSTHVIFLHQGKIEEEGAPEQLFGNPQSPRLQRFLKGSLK
UniProt P03018: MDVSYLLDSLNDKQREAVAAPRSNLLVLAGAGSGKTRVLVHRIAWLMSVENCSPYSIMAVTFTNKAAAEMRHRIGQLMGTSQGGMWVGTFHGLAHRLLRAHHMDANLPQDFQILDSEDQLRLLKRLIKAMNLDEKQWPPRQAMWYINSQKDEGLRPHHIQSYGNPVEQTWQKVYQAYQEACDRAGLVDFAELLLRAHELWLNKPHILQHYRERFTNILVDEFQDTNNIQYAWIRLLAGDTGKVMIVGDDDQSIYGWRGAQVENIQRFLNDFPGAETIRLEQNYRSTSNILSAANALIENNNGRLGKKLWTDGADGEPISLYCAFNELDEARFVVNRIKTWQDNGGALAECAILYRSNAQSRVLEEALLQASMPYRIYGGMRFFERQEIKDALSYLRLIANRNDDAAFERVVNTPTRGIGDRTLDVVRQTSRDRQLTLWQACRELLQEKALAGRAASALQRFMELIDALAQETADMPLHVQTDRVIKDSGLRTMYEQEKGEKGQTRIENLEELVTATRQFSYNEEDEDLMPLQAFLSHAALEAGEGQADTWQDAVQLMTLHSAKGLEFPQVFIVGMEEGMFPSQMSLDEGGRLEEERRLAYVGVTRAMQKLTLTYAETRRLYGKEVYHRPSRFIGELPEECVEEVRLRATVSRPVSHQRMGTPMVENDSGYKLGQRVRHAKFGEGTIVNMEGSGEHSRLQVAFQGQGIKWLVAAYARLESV
UniProt P00903: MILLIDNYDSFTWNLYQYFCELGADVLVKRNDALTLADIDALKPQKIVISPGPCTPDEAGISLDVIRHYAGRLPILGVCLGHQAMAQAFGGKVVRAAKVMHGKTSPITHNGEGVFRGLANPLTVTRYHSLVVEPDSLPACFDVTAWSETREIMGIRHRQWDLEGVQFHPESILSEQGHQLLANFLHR
UniProt P04391: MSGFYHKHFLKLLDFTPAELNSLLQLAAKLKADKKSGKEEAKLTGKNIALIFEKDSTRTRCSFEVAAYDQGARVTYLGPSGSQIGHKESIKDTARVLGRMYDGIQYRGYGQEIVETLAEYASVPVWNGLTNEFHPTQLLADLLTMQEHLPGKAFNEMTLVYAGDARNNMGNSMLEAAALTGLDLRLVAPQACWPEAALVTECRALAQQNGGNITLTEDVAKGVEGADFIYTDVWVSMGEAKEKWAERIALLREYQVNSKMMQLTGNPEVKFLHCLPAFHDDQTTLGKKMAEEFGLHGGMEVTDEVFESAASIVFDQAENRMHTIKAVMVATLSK
UniProt P04949, whole entry: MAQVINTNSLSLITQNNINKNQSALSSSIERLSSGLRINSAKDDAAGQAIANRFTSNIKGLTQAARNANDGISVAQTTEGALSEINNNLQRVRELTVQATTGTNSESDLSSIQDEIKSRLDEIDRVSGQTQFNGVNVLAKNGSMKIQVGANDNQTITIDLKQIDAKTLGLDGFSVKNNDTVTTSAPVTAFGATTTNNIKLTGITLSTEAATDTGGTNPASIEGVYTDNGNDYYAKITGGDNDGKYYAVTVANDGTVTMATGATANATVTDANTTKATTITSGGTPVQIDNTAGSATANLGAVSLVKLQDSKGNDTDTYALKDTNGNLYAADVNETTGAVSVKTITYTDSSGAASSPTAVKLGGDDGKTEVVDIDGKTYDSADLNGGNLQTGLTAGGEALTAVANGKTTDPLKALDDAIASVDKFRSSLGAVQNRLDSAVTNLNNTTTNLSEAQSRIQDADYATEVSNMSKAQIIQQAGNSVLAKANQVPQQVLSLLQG
UniProt P00894: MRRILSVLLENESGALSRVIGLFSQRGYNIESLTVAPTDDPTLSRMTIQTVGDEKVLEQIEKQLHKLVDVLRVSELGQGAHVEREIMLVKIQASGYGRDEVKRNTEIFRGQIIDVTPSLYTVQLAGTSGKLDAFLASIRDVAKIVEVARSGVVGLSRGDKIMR
UniProt P04846: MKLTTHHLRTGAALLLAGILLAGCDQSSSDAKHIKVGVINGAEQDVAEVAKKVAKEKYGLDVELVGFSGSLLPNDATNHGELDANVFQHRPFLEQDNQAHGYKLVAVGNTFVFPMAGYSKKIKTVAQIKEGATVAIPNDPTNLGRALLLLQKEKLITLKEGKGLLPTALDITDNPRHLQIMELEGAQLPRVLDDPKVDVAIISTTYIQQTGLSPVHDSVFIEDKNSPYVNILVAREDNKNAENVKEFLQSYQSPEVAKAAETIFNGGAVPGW
UniProt P08394: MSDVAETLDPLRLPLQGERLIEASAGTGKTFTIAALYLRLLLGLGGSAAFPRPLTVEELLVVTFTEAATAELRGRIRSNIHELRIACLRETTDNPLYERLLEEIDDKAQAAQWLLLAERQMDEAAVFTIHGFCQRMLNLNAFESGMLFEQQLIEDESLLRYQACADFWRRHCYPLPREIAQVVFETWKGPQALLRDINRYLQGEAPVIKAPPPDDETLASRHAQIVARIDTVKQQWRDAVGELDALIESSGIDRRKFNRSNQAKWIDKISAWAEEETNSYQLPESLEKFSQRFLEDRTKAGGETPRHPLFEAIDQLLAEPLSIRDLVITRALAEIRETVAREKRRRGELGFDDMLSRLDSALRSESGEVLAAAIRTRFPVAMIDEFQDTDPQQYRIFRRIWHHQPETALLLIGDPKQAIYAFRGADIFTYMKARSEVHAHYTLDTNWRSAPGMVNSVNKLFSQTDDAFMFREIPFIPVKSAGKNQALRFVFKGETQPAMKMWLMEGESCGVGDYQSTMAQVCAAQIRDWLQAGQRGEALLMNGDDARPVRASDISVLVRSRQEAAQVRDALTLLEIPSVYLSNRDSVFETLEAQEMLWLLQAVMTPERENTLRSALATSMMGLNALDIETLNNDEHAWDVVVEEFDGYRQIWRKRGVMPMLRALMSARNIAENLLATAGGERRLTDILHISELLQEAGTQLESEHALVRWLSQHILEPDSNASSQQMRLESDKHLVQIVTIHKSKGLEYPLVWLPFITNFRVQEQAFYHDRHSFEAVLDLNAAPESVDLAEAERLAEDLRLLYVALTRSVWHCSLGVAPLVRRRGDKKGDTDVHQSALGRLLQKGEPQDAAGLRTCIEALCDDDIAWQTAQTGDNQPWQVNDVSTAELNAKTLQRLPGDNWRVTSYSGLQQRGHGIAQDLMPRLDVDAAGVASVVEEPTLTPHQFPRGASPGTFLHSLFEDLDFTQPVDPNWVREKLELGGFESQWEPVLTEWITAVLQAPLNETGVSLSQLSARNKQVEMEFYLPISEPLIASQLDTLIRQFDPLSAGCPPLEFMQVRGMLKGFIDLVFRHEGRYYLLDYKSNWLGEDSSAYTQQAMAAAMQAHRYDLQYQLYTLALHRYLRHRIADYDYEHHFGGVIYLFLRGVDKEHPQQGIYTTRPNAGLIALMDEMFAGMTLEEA
UniProt P08368: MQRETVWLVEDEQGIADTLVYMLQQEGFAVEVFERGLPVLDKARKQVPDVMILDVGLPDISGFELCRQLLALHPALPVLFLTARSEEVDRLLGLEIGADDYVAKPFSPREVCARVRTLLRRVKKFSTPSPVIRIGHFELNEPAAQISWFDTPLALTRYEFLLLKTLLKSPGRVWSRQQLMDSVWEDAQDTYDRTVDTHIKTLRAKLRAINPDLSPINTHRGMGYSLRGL
UniProt P00550: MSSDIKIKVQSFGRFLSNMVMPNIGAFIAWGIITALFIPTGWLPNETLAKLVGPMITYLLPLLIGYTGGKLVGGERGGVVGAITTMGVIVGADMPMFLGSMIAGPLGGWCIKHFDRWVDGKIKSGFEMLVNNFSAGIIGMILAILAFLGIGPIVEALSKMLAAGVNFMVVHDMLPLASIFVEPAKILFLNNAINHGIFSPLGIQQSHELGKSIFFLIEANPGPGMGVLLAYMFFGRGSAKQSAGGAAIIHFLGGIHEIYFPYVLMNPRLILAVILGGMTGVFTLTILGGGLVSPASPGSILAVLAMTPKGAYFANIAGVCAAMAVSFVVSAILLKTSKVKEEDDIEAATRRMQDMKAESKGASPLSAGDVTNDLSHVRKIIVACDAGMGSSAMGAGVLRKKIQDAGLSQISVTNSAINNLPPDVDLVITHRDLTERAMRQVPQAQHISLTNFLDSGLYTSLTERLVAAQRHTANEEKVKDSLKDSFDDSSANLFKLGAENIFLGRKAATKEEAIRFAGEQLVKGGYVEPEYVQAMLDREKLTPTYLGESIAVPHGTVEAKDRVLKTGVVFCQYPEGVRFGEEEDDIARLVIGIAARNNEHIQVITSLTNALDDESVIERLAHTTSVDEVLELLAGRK
UniProt P00888: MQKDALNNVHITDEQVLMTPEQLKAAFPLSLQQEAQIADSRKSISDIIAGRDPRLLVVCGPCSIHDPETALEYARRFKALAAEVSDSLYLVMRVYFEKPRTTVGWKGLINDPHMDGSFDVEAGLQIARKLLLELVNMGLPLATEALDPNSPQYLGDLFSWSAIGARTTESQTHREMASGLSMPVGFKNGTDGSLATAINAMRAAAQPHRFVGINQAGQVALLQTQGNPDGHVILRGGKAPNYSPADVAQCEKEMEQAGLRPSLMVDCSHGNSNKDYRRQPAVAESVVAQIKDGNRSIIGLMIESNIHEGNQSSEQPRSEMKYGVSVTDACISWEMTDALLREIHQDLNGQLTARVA

Compound: CC1(C)S[C@@H]2[C@H](NC(=O)[C@H](N)c3ccccc3)C(=O)N2[C@H]1C(=O)O [ampicillin]
Assay: log2 fold change of tryptic peptide abundance, ligand vs vehicle (limited proteolysis) (log2 ratio); higher = more trypsin-susceptible (destabilized)
Conditions: ligand concentration: 10 uM; sample: E. coli crude lysate

Target | log2 fold change
UniProt P00959 (peptide sequence: DIFLLSPDAGAKPGHQVK, peptide start residue: 660) | 0.141
UniProt P09152 (peptide sequence: KGECDLIPGKTAPHIMVVER, peptide start residue: 872) | 0.31
UniProt P06959 (peptide sequence: SAMEPVWNGK, peptide start residue: 578) | -0.297
UniProt P06846 (peptide sequence: VLNDDPTLNVK, peptide start residue: 21) | 0.0933
UniProt P00954 (peptide sequence: NDEAFLQQVMK, peptide start residue: 297) | 0.192
UniProt P02931 (peptide sequence: DGNKVDLYGK, peptide start residue: 29) | 0.201
UniProt P03841 (peptide sequence: GVGNSIPDIPDPVARHTTDGLLKLK, peptide start residue: 184) | 0.621
UniProt P07109 (peptide sequence: LNVIDLHK, peptide start residue: 6) | -0.407
UniProt P00452 (peptide sequence: HMDYGVQINKLMYTR, peptide start residue: 332) | -0.215
UniProt P09835 (peptide sequence: ELHDDIGQTITAIR, peptide start residue: 311) | 0.164
UniProt P03018 (peptide sequence: IGQLMGTSQGGMWVGTFHGLAHR, peptide start residue: 74) | 0.246
UniProt P00903 (peptide sequence: GLANPLTVTR, peptide start residue: 117) | -0.102
UniProt P04391 (peptide sequence: MYDGIQYR, peptide start residue: 100) | -0.252
UniProt P04949 (peptide sequence: SRLDEIDR, peptide start residue: 118) | 0.481
UniProt P00634 (peptide sequence: AAQGDITAPGGARR, peptide start residue: 33) | 0.165
UniProt P09373 (peptide sequence: GAVASLTSVAK, peptide start residue: 644) | -0.22
UniProt P05707 (peptide sequence: LGIKPDQVEQYYIDKVPLK, peptide start residue: 204) | 0.563
UniProt P08506 (peptide sequence: ALIHDVPEEYAIHK, peptide start residue: 193) | 0.986

Shown in markdown: entries from further up.

| Target | log2 fold change |
| --- | --- |
| UniProt P00903 (peptide sequence: GLANPLTVTR, peptide start residue: 117) | -0.102 |
| UniProt P04391 (peptide sequence: MYDGIQYR, peptide start residue: 100) | -0.252 |
| UniProt P04949 (peptide sequence: SRLDEIDR, peptide start residue: 118) | 0.481 |

Continuation:

Target | log2 fold change
UniProt P00894 (peptide sequence: IQASGYGRDEVK, peptide start residue: 91) | 0.424
UniProt P04846 (peptide sequence: HLQIMELEGAQLPR, peptide start residue: 177) | -0.0584
UniProt P02359 (peptide sequence: KREDVHR, peptide start residue: 137) | 0.175
UniProt P03024 (peptide sequence: ILPGFENR, peptide start residue: 147) | -0.0781
UniProt P06709 (peptide sequence: KLAGILVELTGK, peptide start residue: 183) | -0.291
UniProt P00760 (peptide sequence: SSGTSYPDVLKCLKAPILSDSSCK, peptide start residue: 149) | -2.67
UniProt P00960 (peptide sequence: ELGPEPMAAAYVQPSR, peptide start residue: 48) | -0.535
UniProt P08394 (peptide sequence: SVWHCSLGVAPLVR, peptide start residue: 809) | 0.241
UniProt P09323 (peptide sequence: LNKQTIQVIVGAK, peptide start residue: 442) | 0.565
UniProt P06988 (peptide sequence: VNALKEQA, peptide start residue: 427) | -0.217
UniProt P08200 (peptide sequence: DSVTLVHK, peptide start residue: 223) | 0.18
UniProt P06971 (peptide sequence: GASNTYDHLIIR, peptide start residue: 115) | 0.517
UniProt P08368 (peptide sequence: QLLALHPALPVLFLTAR, peptide start residue: 68) | -0.801
UniProt P09832 (peptide sequence: AFEMGWRPDMSGVK, peptide start residue: 130) | 0.27
UniProt P06989 (peptide sequence: LYASGTKR, peptide start residue: 138) | -0.123
UniProt P00550 (peptide sequence: DSLKDSFDDSSANLFK, peptide start residue: 480) | 0.267
UniProt P00888 (peptide sequence: SISDIIAGRDPR, peptide start residue: 43) | -0.131
